Article PMC6549176, “SAGA DUBm-mediated surveillance regulates prompt export of stress-inducible transcripts for proteostasis” (Nature Communications, 2019)

Assays:
[1] = target: GST-Yra1p C-terminal region (S. cerevisiae); assay: pull-down; GST-tagged Yra1p or its subfragments as bait (1 µg) on beads, 200 ng target protein; 50 mM HEPES-KOH pH 7.5, 150 mM NaCl, 10% glycerol, 0.1% NP40, 0.5 mM DTT, 1 mM EDTA; 4 °C, 2 h; Western blotting; both purified
[2] = target: GST-Yra1p N-terminal region (S. cerevisiae); assay: as above

- binding [1]: binds
- binding [2]: binds
B1: recombinant Sgf73p (MBP-Sgf73p) (protein, UniProt P53165 1-657)
chain: MRSGDAEIKGIKPKVIEEYSLSQGSGPSNDSWKSLMSSAKDTPLQYDHMNRESLKKYFNPNAQLIEDPLDKPIQYRVCEKCGKPLALTAIVDHLENHCAGASGKSSTDPRDESTRETIRNGVESTGRNNNDDDNSNDNNNDDDDDDDNDDNEDDDDADDDDDNSNGANYKKNDSSFNPLKRSTSMESANTPNMDTKRSKTGTPQTFSSSIKKQKKVKQRNPTEKHLIDFNKQCGVELPEGGYCARSLTCKSHSMGAKRAVSGRSKPYDVLLADYHREHQTKIGAAAEKRAKQQELQKLQKQIQKEQKKHTQQQKQGQRSKQRNVNGGKSAKNGGKSTVHNGNNINEIGHVNLTPEEETTQVLNGVSRSFPLPLESTVLSSVRYRTKYFRMREMFASSFSVKPGYTSPGYGAIHSRVGCLDLDRTTDYKFRVRTPQPINHLTNQNLNPKQIQRLQQQRALQAQLLSQQQQQQQQQQQHHSPQAQAQASTQQPTQGMVPNHFPGGATNSSFNANVSSKQIQQQQQQQQHKSQDTGLTPLEIQSQQQKLRQQQLQQQKFEAAASYLANATKLMQESNQDSHLSGTHNNNSSKNGNNNLMTMKASISSPNTSVNSIQSPPSVNSVNGSGQGVSTGINVSGNNGRIEVGIGNSVNPYNGRIN

No constants are given. Whether binding was seen depends on the method and setting. Binding calls can cover weak binding; strength is not graded here. Where a sequence is shown, tags or fusion partners need not be part of it.
